Measurements published in PMC10133297.
Results are given in words; binding and its absence hold for the method and conditions named. Binding calls can cover weak binding; strength is not graded here.

Molecular target: T1, WT-CsgF (curli accessory protein CsgF) (E. coli) (UniProt P0AE98)
T1 sequence (chain, lysine residues sparsely labeled with Alexa-633; labeled,unlabeled 1,50): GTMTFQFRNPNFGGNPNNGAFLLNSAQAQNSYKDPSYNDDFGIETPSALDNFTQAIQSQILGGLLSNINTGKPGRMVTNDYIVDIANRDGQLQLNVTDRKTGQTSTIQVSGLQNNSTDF
Assay: fluorescence microscopy of recruitment into phase-separated droplets; CsgF condensates (20 µM, from 100 µM CsgF in 25 mM potassium phosphate pH 7.5) added to the labelled curli subunit (CsgB 20 µM) at room temperature; labeled:unlabeled 1:50; both purified

## CsgB∆R5 (CsgB truncation mutant that is missing the C-terminal R5 repeat) (E. coli) (domain or fragment)
  binding: binds
